According to PMC2814829:
Results are given in words; binding and its absence hold for the method and conditions named. In cells and extracts the contact can be indirect. These calls come from enrichment with a bait or labelling near it, and not all partners need be listed. No binding means not detected with the bait.

Biological target: T1, CED-2 in vivo (ced-2::tap construct) (C. elegans) (UniProt Q9NHC3)
T1 sequence: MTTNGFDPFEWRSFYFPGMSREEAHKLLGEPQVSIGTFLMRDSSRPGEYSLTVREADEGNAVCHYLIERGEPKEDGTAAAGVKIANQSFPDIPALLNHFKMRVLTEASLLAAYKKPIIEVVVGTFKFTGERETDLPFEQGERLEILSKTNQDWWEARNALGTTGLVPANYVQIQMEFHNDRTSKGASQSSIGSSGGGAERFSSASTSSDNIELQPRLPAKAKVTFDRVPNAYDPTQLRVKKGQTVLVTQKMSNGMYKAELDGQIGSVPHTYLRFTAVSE
Assay: affinity purification with mass spectrometry; proteomics efforts in vivo (C. elegans); methods in Text S1

B1: APR-1 in vivo (C. elegans) (protein, UniProt Q21227 1-1188)
chain: MSSSSSDENETTIHRTGSNTGGSGIYSQPRAGSSKRTSNVRHDVSDVDDEEEHYARFREDTAIEVDDAITVLLSSLHFEHKRDIVPTDEDDNKLRELHEKIFALITSESDVNRKRRLKKALPASNCVREQVYYLRRKPSTPPASYYHRLNAALHTIVKESFGEEYRKVATVLGLVEALAEVLILEVHTFGINETNPGEHRNIRKLIANALTNLTYGQIHSKRRLCSYDGFIRCVVRIVIESPNITQVYAGLIRNLSWNADSGMSEALQPTVHALSIAAVHAHTHRFDVTATLSALWNLAGHSVENKRTICDTPNCLKVLASLLSPDARFTSLVDSATGILKYVSQYLANTSTHLELRSLLITRMLTLLKSASFTCVTNTLGAIANLIVKDPHMQQMIRQDMAAVQQLNVLRNSNRDDIRTAVKSVLNTLNQPCSHRYGDMSHSVGGGATGMQMLSEPQLQMQTSHHAYHGTASPRLLSLRATRASPGKYIQPQAQQQLIQTPQVDQRSSSLPRHFAVQRNGFVMAQSYNQQMDQHQQQQMIYQLQQQQQIMFQTEDQAQMEHHQQIMYLQQQQQQFHQIQQQQQMQKAQEADPVPPTDDDLDIPTSTVMGTRSNSERSLGSMNPGSVMTNWNSSLDTAANSSRALSPVSYNDIPASPTMCAQVFNLPKSTESEHHQLTSQQQNTTHYSSGSANTMTRSDGATTVPMDNIITPTYAILNPILVHEQTPNGTVPRKTSEELDSPDDVLPGPSLEEEEGDYAIIGGAAQKTDDELLTRSIQSEMPTSSSTPKMKVSPRLNGFFSPTQKTTSSPAWSHPDTSPIPKSSSHRTQPNRRQDASDADRLLMESIMSEMPKSRIISPRLAGTQQYLEPEPERRSHSKNEEADRRDAFTASHEPSDHNGIDVARGSDWSPQQQLHRMESLESQASSEDSFGLTAEEPNSSTSGAAANTMRFDDEIDASLPMDCVDDDDYDYTYDHFEDYEDEEDPDATQFDDGVDAQLTIDCSMISSGSGSSQRNETTTTSRDSKALATSTPKGSASSLPGVRQATRVSTNGKSRLPVPKTNGSLVDKNPKPIIASRRPRLPPKPTLLKDKHYPEEDSIENQTRDDTIYVNAPVVEAEQERIYMNALKQQKNIEQSPSIGNGSPIAKSAIVTPYNYQKPPFTGRNNGEMSNEKSVTPNPKQMLVTIV
  binding: no binding
